Measurements: PMC12183592, “Discovery of Iboga-Derived Ligands for the Sigma‑2 Receptor” (ACS Bio & Med Chem Au, 2025)

System: Sigma 2 (S2R)
Type: binding
Details: for S2R selectivity: S2R over S1R, Table 1

Compound	S2R selectivity	selectivity over S1R
CC[C@H]1C[C@H]2C[C@H]3c4[nH]c5ccccc5c4CCN(C2)[C@@H]13 [ibogamine (1), ibogamine, reference compound]	12.9	–
CC[C@H]1C[C@@H]2C[C@H]3c4[nH]c5cc(OC)ccc5c4CC[N@@](C2)[C@@H]13 [tabernanthine (3), tabernanthine, reference compound]	8.4	–
C[C@H]1CC2CC3c4[nH]c5ccccc5c4CCN(C2)C31 (some centres unmarked) [7g]	1.5	–
CCC1CC2CC3c4[nH]c5cc(C(F)(F)F)ccc5c4CCN(C2)C13 (centres unmarked) [7e]	7.4	7.4 ×
